Data source: PubChem BioAssay AID602196 (INSERM, 2012)

Purpose: 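Knock-downs that protect lung cancer cells from cisplatin or sensitise them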
Cell system: human A549 lung cancer cells
Reagents: siRNA pair against human genes
Duration: 48 h transfection before cisplatin; time from cisplatin to read-out not stated
Treatment: cisplatin at a dose killing half of control-siRNA cells; exact dose and duration not given
Read-out: 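Cisplatin cell death as a shift from the 50% death seen with control siRNA; siRNAs toxic or growth-blocking alone scored 0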
Scale: two-siRNA summed score (-2 to +2): higher = both siRNAs protect from cisplatin killing; -2 means both sensitise; mean protection from cisplatin (shift in death) and protection from cisplatin (shift in death), siRNA C: higher = protection from cisplatin killing
Active means: 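siRNAs harmful alone (LDH or WST-1) get 0; others get +1 for less and -1 for more cisplatin killing; genes are active when the two siRNAs give the same sign, summing to ±2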
Meaning of the calls: active = both siRNAs shift cisplatin killing the same way; inactive = no consistent shift, or siRNA harmful alone
Here is one part, drawn at random, of about 23,000 reagents tested. 455 of them (2%) were called active. 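Active includes both protection and sensitisation; some change values fall well beyond the stated -50 to +50 range.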 Reagents against one gene are numbered here. Further read-outs or replicates are left out here. No sequences are given here. Not given: the amount of reagent.

Gene | reagent no. | two-siRNA summed score (-2 to +2) | mean protection from cisplatin (shift in death) (%) | protection from cisplatin (shift in death), siRNA C (%) | call
LOC158812 | 1 | 0 | 11.5 | 9.3 | inactive
HRES1 (GeneID 3272) | 1 | 1 | 10.7 | 4.5 | inactive
JAKMIP2 (GeneID 9832) | 1 | 1 | 14.5 | 7.7 | inactive
LOC401089 | 1 | 0 | 4.5 | 7.9 | inactive
CAST (GeneID 831) | 1 | 1 | 10.3 | 12.4 | inactive
GBGT1 (GeneID 26301) | 1 | -1 | -10.2 | -18.6 | inactive
BNIP3 (GeneID 664) | 1 | 1 | 2.7 | 8.2 | inactive
DNAH12 (GeneID 201625) | 1 | 0 | 9.9 | 4.6 | inactive
DNAH12 (GeneID 201625) | 2 | 0 | 23 | 29.5 | inactive
OR6C6 (GeneID 283365) | 1 | 0 | 6.8 | 10.3 | inactive
RRAD (GeneID 6236) | 1 | -1 | -22 | -32.2 | inactive
LOC440441 | 1 | 1 | 7.8 | 2.4 | inactive
AMIGO2 (GeneID 347902) | 1 | 1 | 10.2 | 24.1 | inactive
LOC91561 | 1 | 0 | 14.1 | 11.2 | inactive
SLC37A1 (GeneID 54020) | 1 | 0 | 5 | 17.3 | inactive
ULBP1 (GeneID 80329) | 1 | 0 | -0.2 | 4 | inactive
VN1R1 (GeneID 57191) | 1 | 0 | 16.7 | 3.6 | inactive
ATF3 (GeneID 467) | 1 | 0 | 0.1 | 1.3 | inactive
PRAMEF2 (GeneID 65122) | 1 | 0 | 6.1 | -3.8 | inactive
LINC03066 (GeneID 285766) | 1 | 0 | 27.8 | 7.4 | inactive
TAF5L (GeneID 27097) | 1 | 0 | -7.1 | -2.7 | inactive
HMGB2 (GeneID 3148) | 1 | 1 | 8.3 | 15.4 | inactive
WDR43 (GeneID 23160) | 1 | 1 | 20 | 9.4 | inactive
